Data published in patent US20050069907A1, “Methods for using double-mutant RNA polymerases with reduced discrimination between non-canonical and canonical nucleoside triphosphates” (priority 2002, published 2005).
Some of these results come from one statement about several compounds together. Some ranges recur; such a range may be that of the whole group of compounds.

Tests used:
Assay type in all cases: biochemical
poly(rC) = assay: Activity on an RNA (poly(rC)) template
Experimental: T7 RNAP as a reverse transcriptase or RNA replicase which initiates de novo: It has been reported that T7 RNAP can use both RNA and DNA templates (Konarska and Sharp, 1989). Therefore, it was determined if the Y639F mutant would use dNTPs when transcribing an RNA template (poly(rC), see Table IV).
Numbers give mean and range from 3 experiments. Template was at 0.2 mg/ml, polymerases at 10^−6 M. Labeling NTPs were α-P^32 rGTP, α-P^32 dGTP.

[1] = tested on: 12 base DNA or RNA primers hybridized to a DNA template; assay: DNA- and RNA-primed synthesis of DNA and RNA; conditions: with rNTPs
Excerpt: DNA- and RNA-primed synthesis of DNA and RNA: In the assays described so far de novo initiated synthesis has been examined. T7 RNAP can also extend RNA primers. Therefore, the abilities of both polymerase to carry out DNA or RNA primed synthesis of DNA and RNA (FIG. 5) were examined.
Transcription reactions contained end-labeled 12 base DNA or RNA primers of identical sequence (GGACACGGCGAA, SEQ ID NO: 4) hybridized to a DNA template ([…] TAAGTATCC, SEQ ID NO: 5). Primer-template concentration was 10^-5 M. Reactions contained the indicated polymerases (10^-7 M) and NTPs. NTP concentrations and electrophoresis as in FIG. 1.

poly(dC) = assay: Apparent miscoding on homopolymeric template poly(dC); conditions: for Relative rate of incorporation GTP/ATP / Relative rate of incorporation GTP/CTP / Relative rate of incorporation GTP/UTP: Mg^2+ buffer
Experimental: Transcription reactions: Transcription reactions were carried out in 40 mM Tris-Cl pH 8.0, 15 mM MgCl2, and 5 mM DTT or 20 mM Manganese Citrate pH 8.0, 5 mM DTT at 37° C. Template, polymerase, and NTP concentrations were as indicated in the legends to the figures and tables. Relative activity determinations were made by taking 4 μl aliquots of reactions at 5, 10, and 20 minute time points and spotting on to DE81 filter paper. Unincorporated nucleotides were separated from incorporated nucleotides by washing the filter paper with 0.5 M KH2PO4 pH 7.0 and retained radioactive nucleotide was quantitated with a Molecular Dynamics phosphorimager. To evaluate rNTP/dNTP selectivity, reactions were run with 4 rNTPs and pT75 as template and α-P^32 rNTPs or α-P^32 dNTPs were used to label the transcripts. The relative rate of incorporation of an rNTP vs. its cognate dNTP was determined from the relative percentages of labeled rNTP vs. dNTP incorporated into DE81 retainable RNA at 5, 10, and 20 minute time points. Apparent miscoding frequencies were determined similarly, though in this instance the template was a single-stranded homopolymer and the reaction contained the complementary unlabeled rNTP, and complementary α-P^32 rNTP or one of the 3 non-complementary α-P^32 rNTPs. The relative percentages of labeled complementary vs. non-complementary rNTPs incorporated at 5, 10 and 20 minute time points gave an apparent miscoding rate. The rNTP/dNTP selectivity assay was used to test the following T7 RNAP mutants for effects on substrate discrimination: D537S, D537E, S539A, R5S1S, D552S, R627S, K631S, L637A, Y639S, Y639F, Y639A, G640A, F644A, G645A, Q649S, […], H811S, H811A, D812A, D812E, D812S, D812N, D879E+ΔF882+ΔA883, D879E+A881T+ΔA883, D879E+F884+A885, D879E+F882Y, D879E+ΔA883, D879E+F882W, D879E.
An increase in miscoding would be reflected in an increase in the rate of incorporation of the non-complementary NTP into RNA.
Numbers are averages from 2 experiments and reflect the ratio of the percentages of labeled rNTPs incorporated into RNA in reactions in which unlabeled complementary rNTPs were in great excess (0.5 mM) to labeled complementary or non-complementary rNTPs. Templates were at 0.1 mg/ml. Polymerases were at 10^−8 M in Mg^2+ buffer and 10^−7 M in Mn^2+ buffer.
*The upper number refers to results obtained in Mg^2+ buffer, the lower number to results in Mn^2+ buffer. n.d.: G640A, Y639A, Y639S were poorly active in Mn^2+ buffer, or on poly(dT) under all conditions.

Substance | Activity on poly(rC) with rGTP, less than on poly(dC) (poly(rC)) | Extension of DNA primers less efficient than extension of RNA primers [1] | Increase in miscoding with Mn^2+ (poly(dC)) | Relative rate of incorporation GTP/ATP (poly(dC)) | Relative rate of incorporation GTP/CTP (poly(dC)) | Relative rate of incorporation GTP/UTP (poly(dC))
Y639F: T7 RNAP with wild-type tyrosine at position 639 substituted by phenylalanine | 10-20 fold | 2-3 fold | 20-40 fold | 200-400 | 400-600 | 1300-2000
G640A: T7 RNAP mutant adjacent to Y639 that does not affect substrate discrimination [reference compound] | – | – | – | 200-400 | 400-600 | 1300-2000
W.T.: wild-type T7 RNA polymerase [reference compound] | 10-20 fold | 2-3 fold | 20-40 fold | 200-400 | 400-600 | –
